Measurements reported in PubChem BioAssay AID1259274 (Sanger Institute, 2017)
The whole screen tested 794 reagents; this is an unselected part. Over the whole deposit, 11 (1.4%) are marked active. 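Calls rest on knock-down without drug only; synergy scores with anchor drugs were not used for the essential call.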 A number with no mark means an inactive call. No viability above 1 is reported: the scale is capped. Not given: the amount of reagent, the time to read-out.

- Assay: 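Kinases RKO cells need to grow, alone or with anchor drugs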 (primary screen)
- Cell system: human RKO colorectal cancer cells
- Reagent: siRNA pool against human genes
- Challenge: anchor drugs BYL719 at 1 µM, cetuximab at 5 µg/ml or trametinib at 10 nM; DMSO vehicle as the no-drug arm
- Detection: 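Viability of cells versus control pool 2 (non-targeting) averaged across replicates; knock-down-only robust z-score; for every anchor drug (BYL719, cetuximab, trametinib) a synergy score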
- Reading the numbers: viability z-score, siRNA alone: higher = more viable cells; low values mean essential gene; viability, siRNA alone, vehicle: higher = more viable cells; synergy score with BYL719 and synergy score with Trametinib and synergy score with Cetuximab: higher = stronger combined killing with the drug
- Rule for the call: 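Essential when the robust viability z-score with siRNA only falls below -3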
- Calls: active = essential when knocked down alone; inactive = no change alone

| gene knocked down | viability z-score, siRNA alone | viability, siRNA alone, vehicle (fraction of control) | synergy score with BYL719 | synergy score with Trametinib | synergy score with Cetuximab |
| --- | --- | --- | --- | --- | --- |
| RTN4 | 1.19 | 1 | -0.049 | -0.168 | 0 |
| EXOSC10 | 0.285 | 0.922 | -0.115 | -0.0088 | -0.0421 |
| MLKL | 0.796 | 0.966 | -0.0069 | -0.0844 | 0.0127 |
| TRIO | 0.416 | 0.934 | 0.0189 | -0.123 | -0.0381 |
| ADCK2 | 0.168 | 0.912 | -0.0852 | -0.286 | -0.0876 |
| CEP290 | 1.19 | 1 | 0.0381 | -0.168 | 0.0365 |
| DGKD | 0.948 | 0.979 | -0.00739 | -0.136 | 0.0918 |
| PI4KB | 1.19 | 1 | -0.117 | -0.158 | 0 |
| NEK1 | -1.06 | 0.807 | -0.128 | -0.272 | -0.155 |
| ETNK1 | 1.19 | 1 | 0.041 | -0.23 | 0 |
| RPS6KL1 | 0.788 | 0.966 | 0.0114 | -0.0107 | -0.00226 |
| FASTK | -0.467 | 0.858 | -0.0716 | -0.227 | -0.0642 |
| TAOK1 | -0.161 | 0.884 | -0.123 | -0.211 | -0.0813 |
| MELK | 0.797 | 0.966 | 0.0433 | -0.0747 | 0.0708 |
| GK2 | 1.06 | 0.989 | -0.0325 | -0.197 | -0.0111 |
| RPS6KB1 | -0.992 | 0.813 | -0.21 | -0.285 | -0.162 |
| NUP107 | -2 | 0.727 | -0.0155 | -0.125 | 0.109 |
| AK5 | 0.175 | 0.913 | -0.107 | -0.149 | 0.0335 |
| PFKFB4 | 1.19 | 1 | 0.124 | -0.154 | 0.00205 |
| DDR1 | 1.19 | 1 | 0.0304 | 0.108 | 0.125 |
| RIOK2 | 0.12 | 0.908 | 0.00648 | -0.0909 | 0.0317 |
| GRK1 | 1.19 | 1 | -0.045 | -0.206 | 0.0512 |
| MARK4 | 0.131 | 0.909 | 0.0784 | 0.00943 | 0.0708 |
| IP6K3 | -0.953 | 0.816 | -0.0576 | -0.124 | -0.0943 |
| RPS6KA6 | -0.434 | 0.861 | 0.026 | -0.0432 | 0.0149 |
| HK1 | 1.08 | 0.991 | -0.0318 | -0.264 | 0.0412 |
| SF3B1 | -5.61 (active) | 0.418 | -0.068 | -0.116 | -0.163 |
| SGK2 | 0.549 | 0.945 | -0.0175 | -0.136 | 0.0432 |
| LATS2 | 1.19 | 1 | -0.154 | -0.224 | 0 |
| DGUOK | 0.169 | 0.912 | -0.0536 | -0.196 | -0.0494 |
| MAP4K1 | -0.217 | 0.879 | 0.042 | -0.12 | 0.0176 |
| BMPR1B | 0.401 | 0.932 | 0.0111 | -0.0953 | 0.00539 |
| SOX9 | -0.562 | 0.85 | -0.182 | -0.241 | -0.0863 |
| ITK | -0.695 | 0.838 | -0.239 | -0.358 | -0.0465 |
| GUCY2EP | 0.399 | 0.932 | -0.0837 | -0.108 | 0.0318 |
| BRSK1 | 0.899 | 0.975 | -0.108 | -0.211 | 0.0404 |
| SPHK2 | 1.19 | 1 | -0.116 | -0.205 | 0.0584 |
| SMG1 | -0.39 | 0.865 | -0.0624 | -0.161 | -0.02 |
| MAP3K9 | 0.168 | 0.912 | 0.103 | 0.0891 | 0.0558 |
| CDC42BPG | 0.904 | 0.975 | 0.0111 | -0.187 | -0.0245 |
| COQ8B | 0.79 | 0.966 | -0.0422 | -0.4 | -0.0343 |
| STYK1 | -0.41 | 0.863 | -0.00806 | -0.119 | -0.0214 |
| NTRK3 | 1.19 | 1 | -0.0375 | -0.255 | 0 |
| RPS6KB2 | -0.475 | 0.857 | -0.0275 | -0.155 | -0.0247 |
| STK33 | 1.19 | 1 | -0.0183 | -0.13 | 0.00797 |
| MAP3K4 | -0.292 | 0.873 | -0.0196 | -0.173 | -0.0145 |
| SOS2 | -0.133 | 0.887 | 0.0351 | -0.021 | -0.0489 |
| GRK3 | 1.19 | 1 | -0.124 | -0.231 | 0 |
| KCNH2 | -0.693 | 0.839 | -0.0621 | -0.218 | -0.0124 |
| EIF2AK2 | -0.231 | 0.878 | -0.174 | -0.286 | 0.0167 |

Part of the list above, showing only “viability z-score, siRNA alone”:
DGKD: 0.948
PI4KB: 1.19
NEK1: -1.06
ETNK1: 1.19
RPS6KL1: 0.788
FASTK: -0.467
TAOK1: -0.161
MELK: 0.797
